Reference: article PMC5141385, “Small heat shock proteins sequester misfolding proteins in near-native conformation for cellular protection and efficient refolding” (Nature Communications, 2016)
These are yes or no findings as the source states them, for the method shown. Some entries that bind do so weakly or less than the wild type. Sequences can lack the tags named with a protein.

T1: MDH–YFP (UniProt P00346)
T1 sequence: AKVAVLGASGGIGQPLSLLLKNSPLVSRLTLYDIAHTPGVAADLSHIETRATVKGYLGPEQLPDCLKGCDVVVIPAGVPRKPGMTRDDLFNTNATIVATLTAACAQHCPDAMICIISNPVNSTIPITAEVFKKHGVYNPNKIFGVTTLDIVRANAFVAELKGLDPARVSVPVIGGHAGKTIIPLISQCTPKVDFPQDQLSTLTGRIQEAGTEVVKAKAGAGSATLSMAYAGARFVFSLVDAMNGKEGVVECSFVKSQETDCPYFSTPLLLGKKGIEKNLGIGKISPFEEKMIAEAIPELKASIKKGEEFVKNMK


Target: T1, MDH–YFP
Test: FRET or BRET; MDH–YFP and coumarin-labelled MDH (each 0.25 μM) mixed in preheated buffer C at 47 °C (heat-induced co-aggregation); signal at 527 nm; with or without Hsp26 or Hsp42; both purified

| binding | Molecule |
| --- | --- |
| binds | Hsp42 (from UniProt Q12329 1-375) |
| binds | Hsp26 (natural protein, S. cerevisiae, UniProt P15992 1-214, looked up, Hsp26, small heat shock protein of S. cerevisiae; also called sHsp; small heat shock protein Hsp26; source: E. coli (derivative of MC4100), solubilised from the pellet in 8 M urea, purified (Ni-IDA, Sephacryl S-300); not shown: His6-Smt3, N-terminal, cleaved) MSFNSPFFDFFDNINNEVDAFNRLLGEGGLRGYAPRRQLANTPAKDSTGKEVARPNNYAGALYDPRDETLDDWFDNDLSLFPSGFGFPRSVAVPVDILDHDNNYELKVVVPGVKSKKDIDIEYHQNKNQILVSGEIPSTLNEESKDKVKVKESSSGKFKRVITLPDYPGVDADNIKADYANGVLTLTVPKLKPQKDGKNHVKKIEVSSQESWGN |
